Some results were stated once for a whole list of compounds, not compound by compound.
Test system: Collagen type-I bundles
Assay: Stress/strength profile of collagen fibers exposed to proteolytic enzymes
Format: biochemical, Wistar rats
Conditions: 1 mg/ml, 4 hours of treatment
Description: Stress/strength profile of collagen fibers exposed to collagenase: Collagen type-I bundles, sourced from the tails of Wistar rats, were suspended using a LLOYD LF-Plus Digital Material Tester force machine. The bundles were suspended inside a bath loaded with a buffer that simulates the composition of the oral fluid: an isotonic solution, pH 6.7 at 37° C. complemented with electrolytes including sodium, potassium, calcium, magnesium, bicarbonate, and phosphates. The bundles, 0.8-1.2 mm in diameter, were cut into two equal 4-cm sections, acting as an internal control. Collagenase type-I from Clostridium histolyticum (Sigma-Aldrich) was added at different concentrations and the stress/strength profile of the collagen fibers was recorded as a function of the collagenase treatment. The Ultimate Tensile Strength (UTS) of the collagen bundle was determined for each collagenase concentration.
Collagen regeneration SEM. Collagen bundles were mounted on carbon tape and imaged using a Zeiss UltraPlus high-resolution scanning electron microscope (HR-SEM) equipped with an Everhart-Thornley secondary electron detector. Each bundle was then cut in half. The untreated half acted as an internal control for each treated bundle. All data points are the mean of 14-20 experimental points. Collagen fibers were exposed to 0.05 mg/ml collagenase for 8 hours. Ethylenediaminetetraacetic acid (EDTA; ST. Louis, USA), 3 mM along with two drops of NH4Cl 1M buffer, were added for 30 minutes in order to retard the enzyme's activity. Subsequently, the media was removed, and the treated bundles were washed two times with new growth media to allow bundle regeneration.
Collagen fibers regain their initial mechanical strength post nano-surgery. Collagen fibers were sourced from tails of Wistar rats. Each bundle was cut in half. The untreated half acted as an internal control for each treated bundle. All presented data points are the mean of 14-20 experimental points. Collagen fibers were exposed to collagenase at concentration of 0.05 mg/ml for 8 hours in order to weaken the bundles. […] Subsequently, the media was removed, and the treated bundles were washed twice with new growth media.
Two plant-based proteolytic enzymes were also tested for their ability to relax collagen: bromelain and papain. These plant-based enzymes are not specific to collagen but have been reported to act on collagen fibers. Collagens fiber strength was tested with a force machine in the presence of 1 mg/ml collagenase, bromelain or papain. The force required to break a bundle of fibers with no treatment was set to 1, and the force required to break the treated fiber bundles was standardized to this force. […]

Molecule | fiber integrity reduced by [%] | force needed to rupture the fibers, standardized to control force
bromelain | ≤ 30 | less than 70%
papain: plant-based proteolytic enzyme not specific to collagen (protein, UniProt P00784 134-345, looked up) Papain: IPEYVDWRQKGAVTPVKNQGSCGSCWAFSAVVTIEGIIKIRTGNLNEYSEQELLDCDRRSYGCNGGYPWSALQLVAQYGIHYRNTYPYEGVQRYCRSREKGPYAAKTDGVRQVQPYNEGALLYSIANQPVSVVLEAAGKDFQLYRGGIFVGPCGNKVDHAVAAVGYGPNYILIKNSWGTGWGENGYIRIKRGTGNSYGVCGLYTSSFYPVKN | ≤ 30 | less than 70%

— patent publication US11992557B2, “Collagenase loaded liposomes for enhancing drug delivery” (TECHNION RESEARCH & DEVELOPMENT FOUNDATION LIMITED, priority 2018, dated 2024)
